From the supplement of paper PMC10849652
The list shows a part of the results.

Chains of the proteins cited; added tags and fusions are not shown. Lines headed by an entry give the natural chain unless they say otherwise; changes in a name come on top.
UniProt P54105: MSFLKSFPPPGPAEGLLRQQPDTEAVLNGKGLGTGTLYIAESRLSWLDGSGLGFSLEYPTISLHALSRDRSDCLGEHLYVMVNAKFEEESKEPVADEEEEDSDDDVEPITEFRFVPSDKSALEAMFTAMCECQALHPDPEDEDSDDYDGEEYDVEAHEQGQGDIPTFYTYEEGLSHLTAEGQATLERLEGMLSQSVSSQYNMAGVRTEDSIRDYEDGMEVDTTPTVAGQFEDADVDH
UniProt P02452, whole entry, looked up: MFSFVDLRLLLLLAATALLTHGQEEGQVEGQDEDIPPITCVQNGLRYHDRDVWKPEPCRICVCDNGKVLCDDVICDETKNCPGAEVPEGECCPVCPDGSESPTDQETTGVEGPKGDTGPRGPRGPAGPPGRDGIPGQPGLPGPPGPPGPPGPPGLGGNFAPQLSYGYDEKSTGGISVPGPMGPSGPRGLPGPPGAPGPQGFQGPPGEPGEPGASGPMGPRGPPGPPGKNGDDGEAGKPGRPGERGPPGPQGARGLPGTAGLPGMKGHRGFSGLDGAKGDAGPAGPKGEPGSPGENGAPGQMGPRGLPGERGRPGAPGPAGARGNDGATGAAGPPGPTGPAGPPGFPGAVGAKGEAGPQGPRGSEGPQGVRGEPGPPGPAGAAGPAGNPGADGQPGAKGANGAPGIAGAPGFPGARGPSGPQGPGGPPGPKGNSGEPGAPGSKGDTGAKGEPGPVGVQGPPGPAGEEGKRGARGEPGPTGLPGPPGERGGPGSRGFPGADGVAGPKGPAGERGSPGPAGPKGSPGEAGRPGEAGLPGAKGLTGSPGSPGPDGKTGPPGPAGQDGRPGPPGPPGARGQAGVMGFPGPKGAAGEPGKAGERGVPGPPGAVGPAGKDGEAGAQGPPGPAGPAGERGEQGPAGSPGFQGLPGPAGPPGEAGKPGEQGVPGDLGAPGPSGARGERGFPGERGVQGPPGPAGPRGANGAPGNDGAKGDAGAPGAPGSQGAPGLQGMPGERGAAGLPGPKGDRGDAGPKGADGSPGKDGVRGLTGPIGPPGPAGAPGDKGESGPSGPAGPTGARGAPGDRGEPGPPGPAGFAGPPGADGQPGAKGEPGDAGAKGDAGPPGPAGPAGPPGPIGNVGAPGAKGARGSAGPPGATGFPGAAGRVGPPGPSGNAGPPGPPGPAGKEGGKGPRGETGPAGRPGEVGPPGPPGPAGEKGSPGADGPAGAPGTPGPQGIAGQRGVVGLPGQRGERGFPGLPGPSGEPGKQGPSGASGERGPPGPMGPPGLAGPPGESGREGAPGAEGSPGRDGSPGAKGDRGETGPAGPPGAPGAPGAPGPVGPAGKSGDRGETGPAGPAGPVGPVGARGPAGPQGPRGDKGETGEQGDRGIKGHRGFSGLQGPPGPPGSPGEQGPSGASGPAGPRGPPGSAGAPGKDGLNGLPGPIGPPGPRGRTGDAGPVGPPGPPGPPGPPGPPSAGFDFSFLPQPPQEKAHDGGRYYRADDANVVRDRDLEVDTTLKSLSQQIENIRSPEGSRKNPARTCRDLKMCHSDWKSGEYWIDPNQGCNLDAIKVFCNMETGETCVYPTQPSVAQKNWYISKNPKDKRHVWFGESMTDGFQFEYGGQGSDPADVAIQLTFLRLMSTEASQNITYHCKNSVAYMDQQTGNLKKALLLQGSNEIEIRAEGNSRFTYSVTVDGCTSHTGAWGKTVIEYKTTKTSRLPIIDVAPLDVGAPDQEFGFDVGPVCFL
UniProt Q8NFW8: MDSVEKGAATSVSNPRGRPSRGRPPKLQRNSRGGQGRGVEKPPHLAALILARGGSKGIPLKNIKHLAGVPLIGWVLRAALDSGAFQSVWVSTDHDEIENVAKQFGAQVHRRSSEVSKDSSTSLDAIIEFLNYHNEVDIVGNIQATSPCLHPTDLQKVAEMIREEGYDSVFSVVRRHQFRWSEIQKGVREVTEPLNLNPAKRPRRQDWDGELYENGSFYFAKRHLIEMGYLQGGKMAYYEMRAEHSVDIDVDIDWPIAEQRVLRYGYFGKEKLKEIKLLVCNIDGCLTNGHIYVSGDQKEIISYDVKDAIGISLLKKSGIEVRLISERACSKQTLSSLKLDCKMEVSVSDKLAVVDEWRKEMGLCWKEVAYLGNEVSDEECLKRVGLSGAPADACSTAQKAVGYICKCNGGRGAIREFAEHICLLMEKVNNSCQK
UniProt O76071: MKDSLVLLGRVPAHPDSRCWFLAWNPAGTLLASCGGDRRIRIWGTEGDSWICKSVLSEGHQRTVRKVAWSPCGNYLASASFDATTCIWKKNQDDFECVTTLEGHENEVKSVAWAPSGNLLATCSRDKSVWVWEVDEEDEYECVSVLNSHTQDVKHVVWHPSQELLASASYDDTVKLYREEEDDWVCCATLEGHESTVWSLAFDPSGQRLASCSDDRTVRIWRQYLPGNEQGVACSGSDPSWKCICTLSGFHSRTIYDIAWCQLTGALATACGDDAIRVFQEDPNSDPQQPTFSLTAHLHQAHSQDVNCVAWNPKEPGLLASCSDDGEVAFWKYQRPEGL
UniProt P0C7P0: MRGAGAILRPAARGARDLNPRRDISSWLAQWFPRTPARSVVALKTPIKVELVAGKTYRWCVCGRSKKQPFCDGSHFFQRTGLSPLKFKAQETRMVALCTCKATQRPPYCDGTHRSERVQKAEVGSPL
UniProt Q9H8M5: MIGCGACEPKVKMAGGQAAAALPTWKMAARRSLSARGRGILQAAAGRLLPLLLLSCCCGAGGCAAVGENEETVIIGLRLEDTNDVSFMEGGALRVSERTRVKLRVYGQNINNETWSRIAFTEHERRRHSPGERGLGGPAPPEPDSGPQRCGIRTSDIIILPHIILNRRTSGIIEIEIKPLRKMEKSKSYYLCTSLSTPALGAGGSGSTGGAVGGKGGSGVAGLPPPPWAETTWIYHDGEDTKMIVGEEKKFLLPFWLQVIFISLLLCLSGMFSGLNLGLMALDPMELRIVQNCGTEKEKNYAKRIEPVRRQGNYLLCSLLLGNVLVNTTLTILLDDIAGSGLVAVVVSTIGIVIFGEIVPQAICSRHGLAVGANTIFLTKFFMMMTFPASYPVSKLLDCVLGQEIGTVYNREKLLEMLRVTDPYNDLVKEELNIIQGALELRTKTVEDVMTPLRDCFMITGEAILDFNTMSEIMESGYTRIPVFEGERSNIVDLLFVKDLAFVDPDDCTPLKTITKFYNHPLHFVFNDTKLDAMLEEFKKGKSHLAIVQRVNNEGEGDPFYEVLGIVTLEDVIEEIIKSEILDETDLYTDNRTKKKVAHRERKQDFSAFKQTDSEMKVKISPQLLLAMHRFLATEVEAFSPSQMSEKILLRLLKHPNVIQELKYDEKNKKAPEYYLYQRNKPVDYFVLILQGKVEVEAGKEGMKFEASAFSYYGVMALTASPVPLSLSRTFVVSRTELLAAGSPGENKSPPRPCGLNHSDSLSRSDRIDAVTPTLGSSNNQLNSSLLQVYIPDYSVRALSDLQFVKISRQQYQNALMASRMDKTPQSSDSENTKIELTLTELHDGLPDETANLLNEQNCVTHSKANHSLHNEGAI
UniProt P39060, whole entry, looked up: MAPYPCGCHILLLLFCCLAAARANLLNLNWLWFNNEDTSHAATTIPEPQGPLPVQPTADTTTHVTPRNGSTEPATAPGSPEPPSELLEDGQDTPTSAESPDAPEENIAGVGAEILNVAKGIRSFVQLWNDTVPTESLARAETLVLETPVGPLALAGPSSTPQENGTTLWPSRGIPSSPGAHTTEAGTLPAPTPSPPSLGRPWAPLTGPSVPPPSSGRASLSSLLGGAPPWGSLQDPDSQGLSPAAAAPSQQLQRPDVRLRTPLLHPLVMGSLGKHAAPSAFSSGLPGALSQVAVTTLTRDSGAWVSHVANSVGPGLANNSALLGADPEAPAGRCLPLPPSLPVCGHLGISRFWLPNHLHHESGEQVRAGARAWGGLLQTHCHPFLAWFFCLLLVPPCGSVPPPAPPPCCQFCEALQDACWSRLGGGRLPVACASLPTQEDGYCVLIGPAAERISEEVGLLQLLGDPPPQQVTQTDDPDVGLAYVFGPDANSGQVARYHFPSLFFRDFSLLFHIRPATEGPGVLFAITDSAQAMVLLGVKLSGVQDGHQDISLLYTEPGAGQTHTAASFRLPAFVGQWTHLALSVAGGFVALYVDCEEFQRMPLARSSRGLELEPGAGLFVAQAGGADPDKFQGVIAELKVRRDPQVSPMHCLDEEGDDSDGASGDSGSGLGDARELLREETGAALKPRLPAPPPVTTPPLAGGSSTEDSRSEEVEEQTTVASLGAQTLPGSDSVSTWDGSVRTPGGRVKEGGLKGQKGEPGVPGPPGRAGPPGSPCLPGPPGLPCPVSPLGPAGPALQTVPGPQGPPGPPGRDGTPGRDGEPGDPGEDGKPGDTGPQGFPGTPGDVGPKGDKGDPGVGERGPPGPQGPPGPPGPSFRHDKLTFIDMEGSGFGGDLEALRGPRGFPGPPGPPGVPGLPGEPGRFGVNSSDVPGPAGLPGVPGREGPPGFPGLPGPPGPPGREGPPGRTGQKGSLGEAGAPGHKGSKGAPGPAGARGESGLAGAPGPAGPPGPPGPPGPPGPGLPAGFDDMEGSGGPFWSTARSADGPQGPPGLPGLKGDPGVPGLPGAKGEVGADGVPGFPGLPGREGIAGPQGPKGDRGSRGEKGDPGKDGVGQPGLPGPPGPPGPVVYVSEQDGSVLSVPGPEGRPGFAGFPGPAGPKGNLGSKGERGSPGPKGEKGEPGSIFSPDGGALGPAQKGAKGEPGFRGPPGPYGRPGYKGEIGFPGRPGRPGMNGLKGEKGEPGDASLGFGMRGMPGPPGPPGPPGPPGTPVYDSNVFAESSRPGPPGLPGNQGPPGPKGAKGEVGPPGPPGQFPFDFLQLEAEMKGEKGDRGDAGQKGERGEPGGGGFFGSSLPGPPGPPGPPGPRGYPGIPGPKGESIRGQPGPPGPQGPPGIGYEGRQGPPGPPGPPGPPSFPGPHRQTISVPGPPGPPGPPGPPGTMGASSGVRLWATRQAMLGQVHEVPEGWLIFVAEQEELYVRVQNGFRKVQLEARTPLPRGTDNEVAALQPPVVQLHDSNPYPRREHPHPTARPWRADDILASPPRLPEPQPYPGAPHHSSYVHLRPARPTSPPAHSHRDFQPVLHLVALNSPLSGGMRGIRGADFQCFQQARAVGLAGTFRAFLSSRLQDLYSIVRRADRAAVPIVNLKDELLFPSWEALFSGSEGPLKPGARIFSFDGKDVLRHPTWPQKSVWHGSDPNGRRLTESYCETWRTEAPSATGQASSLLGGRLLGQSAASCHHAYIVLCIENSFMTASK
UniProt Q9H5X1: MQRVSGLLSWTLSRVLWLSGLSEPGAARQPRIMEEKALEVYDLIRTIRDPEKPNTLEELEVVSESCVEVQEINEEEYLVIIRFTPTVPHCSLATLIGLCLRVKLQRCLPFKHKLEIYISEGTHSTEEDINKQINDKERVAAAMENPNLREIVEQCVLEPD
UniProt Q9BQ75: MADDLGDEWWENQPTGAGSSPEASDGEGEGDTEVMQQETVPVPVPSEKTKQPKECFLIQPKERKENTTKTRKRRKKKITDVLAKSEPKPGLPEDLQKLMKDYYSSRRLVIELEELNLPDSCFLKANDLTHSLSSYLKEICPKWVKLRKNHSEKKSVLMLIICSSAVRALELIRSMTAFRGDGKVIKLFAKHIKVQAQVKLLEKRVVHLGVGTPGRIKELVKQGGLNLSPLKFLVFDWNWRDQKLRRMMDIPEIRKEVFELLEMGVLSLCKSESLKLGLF
UniProt O96005: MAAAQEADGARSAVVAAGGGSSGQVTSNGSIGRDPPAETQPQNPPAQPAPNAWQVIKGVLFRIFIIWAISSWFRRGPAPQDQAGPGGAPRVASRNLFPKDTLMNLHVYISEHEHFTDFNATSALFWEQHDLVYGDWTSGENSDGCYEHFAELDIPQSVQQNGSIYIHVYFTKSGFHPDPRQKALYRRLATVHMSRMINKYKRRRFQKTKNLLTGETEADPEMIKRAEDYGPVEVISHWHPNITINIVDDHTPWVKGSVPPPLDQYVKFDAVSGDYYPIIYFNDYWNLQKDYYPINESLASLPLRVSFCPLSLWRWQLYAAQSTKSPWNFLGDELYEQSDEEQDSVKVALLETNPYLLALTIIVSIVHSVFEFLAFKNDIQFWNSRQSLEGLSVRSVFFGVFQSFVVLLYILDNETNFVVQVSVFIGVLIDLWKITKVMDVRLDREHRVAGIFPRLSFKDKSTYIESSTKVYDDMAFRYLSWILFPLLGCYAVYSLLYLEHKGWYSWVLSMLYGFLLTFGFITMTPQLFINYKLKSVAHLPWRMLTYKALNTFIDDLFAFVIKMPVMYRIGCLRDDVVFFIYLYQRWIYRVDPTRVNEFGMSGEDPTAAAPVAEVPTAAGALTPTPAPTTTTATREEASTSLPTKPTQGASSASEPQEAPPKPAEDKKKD
UniProt Q9NRP2: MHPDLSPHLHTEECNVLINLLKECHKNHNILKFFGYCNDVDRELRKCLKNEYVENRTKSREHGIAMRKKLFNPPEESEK
UniProt Q8N5K1: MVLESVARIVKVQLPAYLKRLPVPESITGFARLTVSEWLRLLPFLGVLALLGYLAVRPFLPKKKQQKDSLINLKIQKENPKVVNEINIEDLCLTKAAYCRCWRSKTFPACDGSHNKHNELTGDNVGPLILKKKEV

How the values were obtained:
Assay in all cases: log2 fold change, soluble protein after heating vs DMSO (PISA); higher = thermal stabilisation; K562 cells, 10 uM, 30 min; active = over 0.2 and 3.5 SD of the protein, either way, in both replicates (recomputed)
saracatinib = compound: CN1CCN(CCOc2cc(OC3CCOCC3)c3c(Nc4c(Cl)ccc5c4OCO5)ncnc3c2)CC1 [saracatinib]
Procedure, shortened: (§1)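 Values are thermal stability changes relative to control samples and are taken from duplicates. They are stated as log2 fold changes. Before quantification by TMTpro 16plex LC-MS/MS with equalised channel sums, K562 cells at 2×10^6 cells/mL were treated with 10 μM compound for 30 min, heated in aliquots for 3 min across 48°C-58°C, pooled, extracted in PBS with 0.5% NP-40 at 4°C, and centrifuged at 21,000xg for 90 min to give the soluble supernatant.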

sotrastaurin = compound: CN1CCN(c2nc(C3=C(c4c[nH]c5ccccc45)C(=O)NC3=O)c3ccccc3n2)CC1 [sotrastaurin]
Procedure, shortened: as §1

alvocidib = compound: CN1CC[C@H](c2c(O)cc(O)c3c(=O)cc(-c4ccccc4Cl)oc23)[C@H](O)C1 [alvocidib]
Procedure, shortened: as §1

Tubastatin A = compound: CN1CCc2c(c3ccccc3n2Cc2ccc(C(=O)NO)cc2)C1 [Tubastatin A]
Procedure, shortened: as §1

[1] = compound: CNC(=O)C1=CC=CC=C1NC2=NC(=NC=C2Cl)NC3=C(C=C(C=C3)N4CCOCC4)OC
Procedure, shortened: as §1

defactinib = compound: CNC(=O)c1ccc(Nc2ncc(C(F)(F)F)c(NCc3nccnc3N(C)S(C)(=O)=O)n2)cc1 [defactinib]
Procedure, shortened: as §1

rucaparib = compound: CNCc1ccc(-c2[nH]c3cc(F)cc4c3c2CCNC4=O)cc1 [rucaparib]
Procedure, shortened: as §1

[2] = compound: CNc1nc(-c2ccc3c(N)n[nH]c3c2)cc(N2C[C@@H](C(=O)NC3CCCCC3)CC[C@H]2C)n1
Procedure, shortened: as §1

encorafenib = compound: COC(=O)N[C@@H](C)CNc1nccc(-c2cn(C(C)C)nc2-c2cc(Cl)cc(NS(C)(=O)=O)c2F)n1 [encorafenib]
Procedure, shortened: as §1

[3] = compound: COC(=O)[C@H](CCSC)NC(=O)C1=C(C=C(C=C1)NC[C@H](CS)N)C2=CC=CC=C2
Procedure, shortened: as §1

Measured: log2 fold change

CLIC1 (UniProt O00299)
inactive: saracatinib 0.002 | sotrastaurin 0.02 | alvocidib -0.055 | Tubastatin A -0.056 | [1] 0.058 | defactinib -0.02 | rucaparib 0.004 | [2] -0.027 | encorafenib 0.003 | [3] 0.016

CLPB isoform 2 (UniProt Q9H078)
inactive: saracatinib 0.064 | sotrastaurin -0.031 | alvocidib -0.043 | Tubastatin A 0 | [1] -0.017 | defactinib -0.047 | rucaparib 0.018 | [2] 0.047 | encorafenib -0.002 | [3] -0.045

CHRAC1 (UniProt Q9NRG0)
inactive: saracatinib 0.062 | sotrastaurin 0.012 | alvocidib -0.084 | Tubastatin A -0.05 | [1] -0.053 | defactinib -0.075 | rucaparib -0.052 | [2] -0.045 | encorafenib 0.043 | [3] 0.028

CLIC4 (UniProt Q9Y696)
inactive: saracatinib 0.008 | sotrastaurin 0.014 | alvocidib -0.024 | Tubastatin A -0.007 | [1] -0.002 | defactinib -0.001 | rucaparib 0.002 | [2] -0.024 | encorafenib -0.012 | [3] 0.017

COA3 (UniProt Q9Y2R0)
inactive: saracatinib 0.05 | sotrastaurin 0.02 | alvocidib 0.049 | Tubastatin A 0.012 | [1] -0.011 | defactinib 0.004 | rucaparib -0.01 | [2] -0.038 | encorafenib -0.022 | [3] 0.007

CHURC1 isoform 2 (UniProt Q8WUH1)
inactive: saracatinib 0.063 | sotrastaurin 0.093 | alvocidib -0.044 | Tubastatin A 0.033 | [1] -0.008 | defactinib -0.075 | rucaparib -0.1 | [2] 0.039 | encorafenib 0.015 | [3] 0.014

CNTNAP4 (UniProt Q9C0A0)
inactive: saracatinib -0.052 | sotrastaurin 0.008 | alvocidib 0.24 | Tubastatin A 0.03 | [1] 0.021 | defactinib 0.25 | rucaparib 0.388 | [2] 0.016 | encorafenib 0.139 | [3] 0.003

CNBP isoform 6 (UniProt P62633)
inactive: saracatinib 0.064 | sotrastaurin 0.059 | alvocidib 0.147 | Tubastatin A -0.101 | [1] 0.001 | defactinib 0.062 | rucaparib 0.099 | [2] -0.005 | encorafenib -0.004 | [3] 0.075

CLNS1A (UniProt P54105)
inactive: saracatinib 0.035 | sotrastaurin -0.012 | alvocidib -0.034 | Tubastatin A -0.001 | [1] -0.002 | defactinib -0.098 | rucaparib 0.008 | [2] 0.026 | encorafenib -0.008 | [3] -0.003

COL1A1 (UniProt P02452)
inactive: saracatinib 0.084 | sotrastaurin 0.321 | alvocidib 0.147 | Tubastatin A -0.213 | [1] -0.038 | defactinib 0.206 | rucaparib -0.281 | [2] -0.002 | encorafenib -0.292 | [3] 0.42

CMAS (UniProt Q8NFW8)
inactive: saracatinib -0.072 | sotrastaurin 0.056 | alvocidib 0.135 | Tubastatin A 0 | [1] -0.052 | defactinib 0.169 | rucaparib 0.16 | [2] 0.059 | encorafenib 0.126 | [3] 0.018

CNNM3 (UniProt Q8NE01)
inactive: saracatinib -0.086 | sotrastaurin 0.072 | alvocidib -0.013 | Tubastatin A 0.05 | [1] -0.004 | defactinib 0.027 | rucaparib -0.02 | [2] -0.011 | encorafenib -0.045 | [3] -0.042

CKMT2 (UniProt P17540)
inactive: saracatinib -0.007 | sotrastaurin 0.28 | alvocidib 0.087 | Tubastatin A -0.028 | [1] -0.03 | defactinib -0.042 | rucaparib -0.069 | [2] -0.027 | encorafenib -0.025 | [3] 0.078

CKAP5 (UniProt Q14008)
inactive: saracatinib -0.087 | sotrastaurin -0.184 | alvocidib -0.013 | Tubastatin A 0.023 | [1] -0.023 | defactinib -0.01 | rucaparib 0.216 | [2] 0.096 | encorafenib 0.13 | [3] -0.067

CIAO1 (UniProt O76071)
inactive: saracatinib 0.003 | sotrastaurin 0.034 | alvocidib -0.068 | Tubastatin A -0.003 | [1] -0.057 | defactinib 0.018 | rucaparib -0.075 | [2] -0.023 | encorafenib -0.031 | [3] 0.016

CLCC1 (UniProt Q96S66)
inactive: saracatinib -0.002 | sotrastaurin 0.028 | alvocidib -0.024 | Tubastatin A -0.021 | [1] -0.018 | defactinib -0.027 | rucaparib -0.062 | [2] -0.058 | encorafenib -0.004 | [3] 0.029

CISD3 (UniProt P0C7P0)
inactive: saracatinib 0.202 | sotrastaurin 0.055 | alvocidib -0.06 | Tubastatin A -0.031 | [1] -0.016 | defactinib 0.009 | rucaparib -0.007 | [2] 0.036 | encorafenib -0.009 | [3] 0

CKMT1A (UniProt P12532)
inactive: saracatinib 0.029 | sotrastaurin 0.05 | alvocidib 0.026 | Tubastatin A -0.033 | [1] -0.019 | defactinib -0.026 | rucaparib -0.011 | [2] -0.058 | encorafenib -0.02 | [3] 0.019

CLDND1 (UniProt Q9NY35)
inactive: saracatinib 0.055 | sotrastaurin -0.106 | alvocidib 0.18 | Tubastatin A -0.015 | [1] 0.063 | defactinib 0.043 | rucaparib 0.004 | [2] 0.057 | encorafenib 0.052 | [3] 0.033

CNNM2 (UniProt Q9H8M5)
inactive: saracatinib -0.011 | sotrastaurin 0 | alvocidib 0.073 | Tubastatin A 0.106 | [1] -0.075 | defactinib 0.059 | rucaparib 0.059 | [2] 0.024 | encorafenib 0.061 | [3] 0.113

COA7 (UniProt Q96BR5)
inactive: saracatinib 0.018 | sotrastaurin -0.015 | alvocidib 0.04 | Tubastatin A -0.044 | [1] 0.016 | defactinib 0.002 | rucaparib -0.093 | [2] -0.068 | encorafenib 0.002 | [3] 0.046

COL18A1 (UniProt P39060)
inactive: saracatinib 0.002 | sotrastaurin 0.135 | alvocidib -0.045 | Tubastatin A 0.026 | [1] -0.073 | defactinib 0.094 | rucaparib 0.048 | [2] -0.054 | encorafenib -0.071 | [3] -0.186

Two records picked at random from the list so far, as already listed:
CNNM2 (UniProt Q9H8M5)
inactive: saracatinib -0.011 | sotrastaurin 0 | alvocidib 0.073 | Tubastatin A 0.106 | [1] -0.075 | defactinib 0.059 | rucaparib 0.059 | [2] 0.024 | encorafenib 0.061 | [3] 0.113

COL18A1 (UniProt P39060)
inactive: saracatinib 0.002 | sotrastaurin 0.135 | alvocidib -0.045 | Tubastatin A 0.026 | [1] -0.073 | defactinib 0.094 | rucaparib 0.048 | [2] -0.054 | encorafenib -0.071 | [3] -0.186

Further records:

CHORDC1 (UniProt Q9UHD1)
inactive: saracatinib -0.02 | sotrastaurin -0.021 | alvocidib -0.06 | Tubastatin A -0.026 | [1] 0.017 | defactinib -0.049 | rucaparib -0.064 | [2] 0.01 | encorafenib -0.001 | [3] 0

CIAO2A (UniProt Q9H5X1)
inactive: saracatinib 0.016 | sotrastaurin 0.019 | alvocidib -0.068 | Tubastatin A -0.015 | [1] -0.041 | defactinib -0.034 | rucaparib -0.043 | [2] -0.066 | encorafenib -0.021 | [3] -0.015

CINP isoform 3 (UniProt Q9BW66)
inactive: saracatinib -0.037 | sotrastaurin 0.035 | alvocidib 0.04 | Tubastatin A -0.013 | [1] -0.033 | defactinib 0.021 | rucaparib 0.043 | [2] -0.088 | encorafenib -0.01 | [3] -0.02

CMSS1 (UniProt Q9BQ75)
inactive: saracatinib -0.076 | sotrastaurin -0.123 | alvocidib 0.156 | Tubastatin A 0.098 | [1] 0.047 | defactinib 0.322 | rucaparib 0.138 | [2] -0.129 | encorafenib 0.228 | [3] -0.038

CLPTM1 (UniProt O96005)
inactive: saracatinib -0.011 | sotrastaurin -0.001 | alvocidib -0.016 | Tubastatin A 0.022 | [1] 0.003 | defactinib -0.018 | rucaparib -0.016 | [2] -0.042 | encorafenib 0.057 | [3] -0.04

CMC2 (UniProt Q9NRP2)
inactive: saracatinib 0.113 | sotrastaurin 0.015 | alvocidib 0.073 | Tubastatin A -0.092 | [1] 0.055 | defactinib -0.05 | rucaparib 0.001 | [2] -0.016 | encorafenib -0.054 | [3] 0.046

CNOT8 (UniProt Q9UFF9)
inactive: saracatinib 0.004 | sotrastaurin -0.024 | alvocidib 0.072 | Tubastatin A -0.001 | [1] -0.031 | defactinib -0.098 | rucaparib 0.075 | [2] 0.01 | encorafenib 0.061 | [3] 0.088

CISD2 (UniProt Q8N5K1)
inactive: saracatinib 0.027 | sotrastaurin 0.014 | alvocidib -0.016 | Tubastatin A -0.026 | [1] -0.025 | defactinib -0.018 | rucaparib -0.029 | [2] -0.049 | encorafenib -0.032 | [3] 0.055
